# Percent effect of library compounds

Protein sequences, listed by entry. Tags and fused reporters are not part of them. Residues count along the entry.
UniProt A4I591, 1-473: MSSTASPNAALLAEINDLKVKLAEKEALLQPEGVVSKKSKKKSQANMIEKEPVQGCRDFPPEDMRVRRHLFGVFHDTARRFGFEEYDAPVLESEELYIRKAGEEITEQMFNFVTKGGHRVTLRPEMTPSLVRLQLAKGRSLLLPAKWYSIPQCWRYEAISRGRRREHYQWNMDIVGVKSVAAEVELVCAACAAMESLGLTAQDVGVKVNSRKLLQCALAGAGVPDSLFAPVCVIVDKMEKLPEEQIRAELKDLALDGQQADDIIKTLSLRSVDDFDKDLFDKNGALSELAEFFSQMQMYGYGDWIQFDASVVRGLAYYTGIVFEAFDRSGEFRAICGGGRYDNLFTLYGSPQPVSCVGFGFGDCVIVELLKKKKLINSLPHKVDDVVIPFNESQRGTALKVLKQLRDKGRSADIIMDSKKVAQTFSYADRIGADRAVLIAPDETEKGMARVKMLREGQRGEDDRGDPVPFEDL
UniProt Q4DA54, 1-478: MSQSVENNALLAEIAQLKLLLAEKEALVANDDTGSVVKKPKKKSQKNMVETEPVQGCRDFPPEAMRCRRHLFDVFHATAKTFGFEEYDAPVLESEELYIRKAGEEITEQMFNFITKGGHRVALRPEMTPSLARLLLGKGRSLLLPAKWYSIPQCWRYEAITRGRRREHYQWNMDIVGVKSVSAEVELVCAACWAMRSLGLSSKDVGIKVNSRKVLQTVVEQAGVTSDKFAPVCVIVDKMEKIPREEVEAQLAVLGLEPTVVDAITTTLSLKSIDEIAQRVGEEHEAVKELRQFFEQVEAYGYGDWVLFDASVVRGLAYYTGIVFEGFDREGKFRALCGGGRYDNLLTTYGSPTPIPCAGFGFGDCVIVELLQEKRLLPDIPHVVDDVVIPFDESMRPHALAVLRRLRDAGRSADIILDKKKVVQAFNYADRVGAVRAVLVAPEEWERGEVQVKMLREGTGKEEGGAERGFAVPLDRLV

Values are the deposited “Percent Effect”, in %.
The record does not define 0% and 100%; most values in the screen are far below 50% and negative numbers occur (in some assays of this library far below -100).
The compounds are a random part of those screened.

LiHisRS: 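Histidine-tRNA ligase, Leishmania infantum (UniProt A4I591). Enzyme assay of histidyl-tRNA synthetase; the read-out is not stated. Concentration: 30 µM. The record gives no direction; compounds that gave an IC50 in retests scored well above the rest, so higher reads as stronger inhibition. The assay is labelled LdHisRS but filed under L. infantum. About 69,000 compounds were tested under these conditions; 0.6% (about 410) showed 50% or more at least once.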
TcHisRS: 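Enzyme assay of histidyl-tRNA synthetase; the read-out is not stated. Target: Histidine-tRNA ligase, Trypanosoma cruzi CL Brener (UniProt Q4DA54). Tested at 30 µM. The record gives no direction; compounds that gave an IC50 in retests scored well above the rest, so higher reads as stronger inhibition. Size under these conditions: about 69,000 compounds, about 31 of them at 50% or above in at least one test.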

structure	LiHisRS	TcHisRS
O=C(C(CNCc1ccncc1)c1ccccc1)N1CCOCC1 (centres unmarked)	0.9434%	3.347%
Cc1nc(C)c2c(n1)CCN(Cc1ccsc1)CC2	25%	9.783%
Cn1ccc(C(=O)NCc2cccc(Cn3ccnc3)c2)cc1=O	25.71%	-6.122%
CCCn1ncc(C(=O)N(CCOC)Cc2c(C)nn(CC)c2C)c1C	18.33%	9.091%
Cc1cccc(C(=O)N2CC[C@@H]3CN(c4ncccn4)CCO[C@@H]3C2)c1	10%	-0.9804%
CC(C)c1cc(C(=O)NCCN2CCOCC2)nc(N2CCCC2)n1	12.07%	2.609%
CN(C)C(=O)C1CN(Cc2ccc(C#N)cc2)c2ccccc2O1 (centres unmarked)	-1.724%	4.712%
Cc1cc(F)ccc1N1CCCC(NC(=O)CCc2ccncc2)C1 (centres unmarked)	13.25%	9.453%
CCCS(=O)(=O)N1Cc2nccn2CC(Cn2cncn2)C1 (centres unmarked)	0%	2.222%
CCCc1nc(N(C)Cc2cnc(NC)nc2)c2cnn(C)c2n1	-398.2%	4.372%
COCC(C)NCc1ccc2[nH]c(C)c(C)c2c1 (centres unmarked)	15.56%	-1.19%
c1ccc(OCc2ccncc2)c(CNC2CCc3ncnn3C2)c1 (centres unmarked)	6.383%	4.58%
Cc1nn(CCNS(=O)(=O)NCc2ccccc2)c(C)c1Cl	10.39%	-1.212%
CCN(C)c1ncnc2c1CCN(c1ccc(C)nn1)CC2	13.51%	6.63%
N#Cc1cccc(NC(=O)N2CCCC(N3CCCC3=O)C2)c1 (centres unmarked)	10.92%	10.78%
Cc1cc(C(=O)NC(C)Cc2ccc(N(C)C)cc2)n(C)n1 (centres unmarked)	12.39%	1.786%
Cc1ccc(N2CCCC(N(C)Cc3ccccn3)C2)nn1 (centres unmarked)	12.9%	8.046%
CC1COc2ccccc2N1C(=O)c1ccc(=O)n(C)c1 (centres unmarked)	14.17%	2.632%
CCc1ncc(C(=O)N2CCCC2Cn2cccn2)s1 (centres unmarked)	10.53%	0.2865%
Cc1nn(C)c(C)c1CCn1cncc1-c1ccc2c(c1)CC(C)N2C (centres unmarked)	53.69%	23.14%
O=C(O)c1cnc(N2CCCC2)nc1COc1ccccc1	14.61%	7.772%
CS(=O)(=O)c1ccc(-c2cnc(C3CCCN3)cn2)cc1 (centres unmarked)	20.29%	9.848%
c1ccc(-c2cnc(CNC3CCCN(c4cccnn4)C3)o2)cc1 (centres unmarked)	46.81%	2.29%
Cc1cnc(-c2nc(NC3CC3)ncc2-c2cc(C)no2)cn1	2.069%	3.042%
CN(C)c1ccc(CCNC(=O)NCc2ccc(N(C)C)nc2)cc1	16.67%	1.504%
CC(C)OCCOCc1cccc(NC(=O)NCC(=O)N(C)C)c1	16.13%	7.738%
Cc1ccc(-c2cc(CNCCn3cc(C)cn3)on2)cc1	13.98%	7.738%
Cc1nn(C)c(C)c1C1CCCN1C(=O)c1cc(C(N)=O)cs1 (centres unmarked)	15.54%	10.5%
COc1cccc(COCC(=O)N2CCCC(c3nncn3C)C2)c1 (centres unmarked)	28.57%	-1.504%
CSCCC(=O)N1CCCC(n2ccnc2)C1 (centres unmarked)	1.709%	2.564%
Cn1ccnc1CN1CCN(CC(O)c2cccc(F)c2)CC1 (centres unmarked)	13.33%	-2.642%
CO[C@H]1CNC[C@@H]1NC(=O)c1cc(C)nc2ccc(C)cc12	23.94%	4.972%
Cc1ccc(C(N)=O)c(N2Cc3cnc(C(C)(C)C)nc3C2)n1	18.68%	2.062%
O=C(c1cnc2ccccc2c1)N1CCC2(CCN2c2ncccn2)C1 (centres unmarked)	20.21%	15.08%
CCn1cnnc1C1CCN(C(=O)COc2ccc(Cl)cc2)CC1	15.09%	0.8333%
Cc1cccc(CN2C[C@@H]3OCCN(CC(=O)N(C)C)[C@@H]3C2)c1	13.51%	9.945%
CCN(CC)CCNC(=O)c1cnc(-c2ccccc2)nc1	19.67%	5.814%
CSc1ccc(-c2noc(CN(CC(C)C)CC(C)C)n2)cc1	3.371%	1.554%
Nc1cc2c(nn1)CCN(C(=O)c1ccc(-c3ccco3)[nH]c1=O)C2	15.79%	15.08%
Cc1ccc(Cl)c(CN2CCC3(CC2)C(C(=O)O)CC(=O)N3C)c1F (centres unmarked)	10.53%	6.557%
COc1ccc(CN2CCOC3(CCCN(c4cnccn4)C3)C2)cc1 (centres unmarked)	15.79%	3.448%
CC(C)(C)OC(=O)N1CCN(C(=O)c2sccc2C2CC2)CC1	13.51%	1.128%
CCN1CCC(Cn2ccc3c(OC)c(OC)ccc3c2=O)C1 (centres unmarked)	9.091%	-1.087%
O=C(NCCNc1ncccn1)N1CCN(C2CCCC2)CC1	2.632%	5.523%
CC(C(=O)NCC(C)(C)c1ccc2c(c1)OCO2)n1ccnc1 (centres unmarked)	5.882%	8.04%
CCC(=O)NCC(=O)NCC1(O)CCC(C(C)(C)C)CC1 (centres unmarked)	9.375%	11.6%
NC(=O)C1CCN(C(=O)c2ccccc2OCc2ccncc2)CC1	17.02%	20.23%
O=C(CN1CCC(c2ccnn2CCO)CC1)NC1CCCC1	10.17%	6.857%
Cc1cccc(C(=O)NCCNCC2CNc3ccnn3C2)c1 (centres unmarked)	9.589%	10.84%
Cc1nn(C)c(Cl)c1C1CCCN1Cc1nnc(C2CC2)o1 (centres unmarked)	18.42%	4.046%
CN(C)C(=O)C1CCCN1CCCNC(=O)c1ccccc1F (centres unmarked)	23.08%	1.653%
CC(C)(C)c1ncc2c(n1)CN(C(=O)c1ccc(-c3nc[nH]n3)cc1)C2	13.33%	0.8264%
CC(Cc1ccccc1Cl)NC(=O)Nc1cnn(CC(N)=O)c1 (centres unmarked)	21.74%	10.14%
Cc1cc(C)n(-c2ccc(CNCc3ccc(F)cc3F)cn2)n1	14.29%	5.325%
Cc1cc(CN2CCN(C(=O)NC(C)c3ccc(C)o3)CC2)on1 (centres unmarked)	19.64%	4.734%
CC(C)(NC(=O)Nc1cnn(CC2CCCO2)c1)c1nccs1 (centres unmarked)	4.464%	1.724%
COc1ncccc1CNC(=O)C1CC(=O)N(C)C1 (centres unmarked)	11.69%	7.389%
Cc1nn(C(C)C)c2cnn(CC(=O)N3CCN(C)CC3)c12	20.35%	-8.407%
Cc1nn(C)c(N2CCOCC2)c1CNC1CCC(O)CC1 (centres unmarked)	11.86%	6.286%
CC(SCCNS(=O)(=O)c1cnn(C)c1)c1cccs1 (centres unmarked)	2.74%	-3.175%
O=c1[nH]c(CN2CCOC(Cn3cccn3)C2)nc2ccccc12 (centres unmarked)	15.79%	4.298%
CCOC(=O)CSc1ccc(-c2nc(CC)no2)cn1	16.95%	3.415%
CCNC(=O)[C@@H]1C[C@H](N)CN1c1cc(C(F)(F)F)nc(N2CCCC2)n1	7.843%	7.407%
CC(OCC1CC1)C(=O)N1CCCN(Cc2cscn2)CC1 (centres unmarked)	11.01%	7.647%
Cc1c(-c2c(-c3ccccc3)ncn2[C@H](CO)C(=O)O)cnn1C	7.853%	3.743%
NC(=O)Cn1ccc(NC(=O)C2(c3cccc(F)c3)CCC2)n1	12.9%	-2.062%
O=c1c2ccccc2nnn1CN(CC1CCOC1)C1CC1 (centres unmarked)	11.86%	6.341%
CC(C)c1nnc(NC(=O)NCc2ccc(CO)c(F)c2)s1	10.81%	3.383%
CC(Cn1ccnc1)NC(=O)NCc1ccccn1 (centres unmarked)	9.174%	0%
CNS(=O)(=O)c1ccccc1N1CCN(C(C)C(N)=O)CC1 (centres unmarked)	14.29%	6.061%
Cc1ccc(NC2CCN(C(=O)c3ccc4c(c3)CCC4)CC2)nn1	10.43%	-2.299%
Cc1cc(C)cc(C(C)NC(=O)c2ccc(CS(C)(=O)=O)o2)c1 (centres unmarked)	16.88%	2.463%
CN(C)C(=O)N1CCN(C(=O)c2ccccc2)CC2(CNC(=O)C2)C1 (centres unmarked)	10.53%	3.448%
Cc1c(C(C)NC2CCCC2)cnn1-c1ccc(F)cc1F (centres unmarked)	-5.263%	0.5587%
CN(Cc1ccco1)C(=O)c1cccc(N2CCCC2=O)c1	16.36%	3.509%
Cc1nc(C(=O)N2CCCCC2)nn1-c1ccccc1Cl	7.895%	2.89%
Cc1nc(CC(=O)N2CCCN(c3ccc(C#N)cc3)CC2)cs1	14.29%	4.348%
CC1CCCN(S(=O)(=O)NCCCn2ccc3ccccc32)C1 (centres unmarked)	16.13%	11.31%
O=C(Cc1ccc2c(c1)CCC2)N1CCCC1Cn1cccn1 (centres unmarked)	13.83%	3.015%
c1cncc(OCCNC2Cc3ccccc3C2)c1	17.54%	7.563%
Cc1ccc(CN2CCc3onc(C(=O)N4CCCC4)c3C2)o1	9.615%	0.5587%
CN(Cc1nc(-c2ccco2)no1)C1CCCN(c2cccnn2)C1 (centres unmarked)	21.35%	3.008%
NC(=O)CCn1cc(CNCCCc2csc(N)n2)c2ccccc21	12.5%	8.511%

Once more, the final 5:

- O=C(Cc1ccc2c(c1)CCC2)N1CCCC1Cn1cccn1 (centres unmarked) : LiHisRS: 13.83%; TcHisRS: 3.015%
- c1cncc(OCCNC2Cc3ccccc3C2)c1 : LiHisRS: 17.54%; TcHisRS: 7.563%
- Cc1ccc(CN2CCc3onc(C(=O)N4CCCC4)c3C2)o1 : LiHisRS: 9.615%; TcHisRS: 0.5587%
- CN(Cc1nc(-c2ccco2)no1)C1CCCN(c2cccnn2)C1 (centres unmarked) : LiHisRS: 21.35%; TcHisRS: 3.008%
- NC(=O)CCn1cc(CNCCCc2csc(N)n2)c2ccccc21 : LiHisRS: 12.5%; TcHisRS: 8.511%

Source: ChEMBL document CHEMBL3988442, “University of Dundee, Small-Polar-MMV Screening Library” (2021).